Measured values: the supplement of paper PMC3334620
Whole data set: some 33,000 sequences, median “E-score (-0.5 to 0.5)” near -0.015, cut for the highest 2% near 0.3. The list shows a part of the results.

These sequences were tested against T1, Abf1 (UniProt P14164) (assay: PBM E-score (8-mer binding enrichment) (E-score (-0.5 to 0.5)); higher = stronger / more preferred TF binding). Conditions: protein concentration: 200 nM; construct: GST-full length.
T1 sequence: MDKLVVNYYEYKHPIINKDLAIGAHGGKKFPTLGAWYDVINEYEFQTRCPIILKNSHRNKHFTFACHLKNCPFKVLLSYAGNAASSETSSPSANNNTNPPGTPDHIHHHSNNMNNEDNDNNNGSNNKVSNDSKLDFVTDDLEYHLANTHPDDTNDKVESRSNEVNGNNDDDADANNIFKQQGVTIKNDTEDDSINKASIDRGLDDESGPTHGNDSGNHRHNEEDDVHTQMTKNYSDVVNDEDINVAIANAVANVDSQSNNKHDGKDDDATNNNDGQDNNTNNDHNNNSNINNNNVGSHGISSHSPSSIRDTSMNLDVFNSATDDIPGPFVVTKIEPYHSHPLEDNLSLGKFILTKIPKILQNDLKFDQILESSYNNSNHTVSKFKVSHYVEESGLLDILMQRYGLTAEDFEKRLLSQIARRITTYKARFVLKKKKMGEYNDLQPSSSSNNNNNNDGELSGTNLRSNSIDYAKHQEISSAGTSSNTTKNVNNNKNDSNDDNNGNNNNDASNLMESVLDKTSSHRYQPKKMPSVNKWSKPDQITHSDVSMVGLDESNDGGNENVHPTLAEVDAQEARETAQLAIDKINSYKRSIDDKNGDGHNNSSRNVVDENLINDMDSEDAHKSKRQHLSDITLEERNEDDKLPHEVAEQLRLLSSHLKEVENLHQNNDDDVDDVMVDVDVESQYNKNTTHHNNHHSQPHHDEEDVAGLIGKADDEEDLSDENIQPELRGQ
Description: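 Universal 'all 10-mer' protein binding microarrays (Agilent AMADID 015681) probed with GST-tagged S. cerevisiae TFs (full-length or DBD) made by in vitro transcription/translation (PURExpress), about 100-200 nM. Bound TF was detected with fluorescent anti-GST. Each ungapped 8-mer (which stands for itself and its reverse complement) is scored by the PBM enrichment score (E-score), a modified Wilcoxon-Mann-Whitney statistic from -0.5 to +0.5, computed with the Universal PBM Analysis Suite. Scale: above 0.35 generally sequence-specific binding.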

Sequence	PBM E-score
GAAGGCCC	-0.198
CTGCCAAG	-0.0177
AGAAAAAG	-0.135
GCGGGGAA	-0.0511
AGGGAAGC	-0.197
TCGAGAAA	0.0126
AGTCAGGA	-0.124
TAGGAATA	-0.0281
ACTGCTCG	-0.0422
CTATTTAA	0.00082
ACATAGCA	0.00829
AGTTAAGG	0.0186
AGTCTGAG	-0.185
ATCGCGGG	-0.0772
CCAGTACG	0.0702
GCAGAAGA	0.0315
AGACATAA	-0.0415
CTACGTGC	-0.0934
ATTTTATG	0.128
GTCTTTAA	0.0512
CCGTATAG	0.295
AGTCCATC	-0.0761
AATCCCAG	-0.019
CTAGCGAC	0.153
GTCGCTTA	0.14

Sequence	PBM E-score
GTGCCCTA	-0.0841
TATCGGAA	0.181
AACATGAC	0.146
ACCTGGCT	-0.0275
CGTCGCGA	0.205
GCAGTATA	-0.00438
TCGGCTCA	0.0732
GAGTACGA	0.0499
GCCATGGA	-0.167
GTCCGTGA	0.191
CGTCAAGC	-0.00097
AGACTGAT	-0.102
GGTCGGTA	-0.0569
CGGGGGCC	-0.357
CACTCTGC	-0.0179
GTGGACCA	-0.0273
CAAGAAGG	-0.104
AATGTTCA	0.0814
ACTGCTTC	-0.188
CTAACCAC	0.129
GATTGCCC	-0.159
CGTTTGTC	0.129
GATGCACC	-0.0827
AGGACTAG	-0.0252
ATAATAAA	0.2

Sequence	PBM E-score
CGCTTTGA	-0.131
AGGGGACC	-0.244
TACCATCA	-0.276
GGGTAAGA	-0.0923
CTAATACC	0.0687
GCCTACTA	-0.137
ATTAGTTG	0.148
ACTAGTCC	-0.0252
AACTCGCG	0.211
ACACCAGC	-0.294
ACGCTTAA	0.017
GCGCAAGC	-0.111
ACTCGGTC	-0.15
TAGACTCA	-0.197
ACTGCTAT	-0.116
CACAGCAA	0.176
ACCGGTAT	-0.215
CGACTCAA	0.0184
GTCCCCGA	-0.178
CGACGTAA	0.123
ATCCTGAA	-0.0905
AGACATCG	0.111
CGATTACA	0.0916
ATGCCAAA	-0.0534
CGGTAAAC	0.0651

Sequence	PBM E-score
AAGGTGGA	-0.0677
AATGGCGC	-0.282
GCAACGCA	-0.143
CTGGGTGA	-0.0896
GGCGTGTA	-0.0517
ATCGTAAA	0.234
AAGATAAC	0.171
TGCCCTAA	-0.186
ACTTTTTA	0.234
CGGTGTCC	-0.0147
GCAGCGCC	-0.258
ACGTAGCT	0.0916
ATCCTGTC	0.235
ATAGCTCA	0.00251
AACATAGT	0.0305
CACTAAGA	0.115
CGGGCCAA	-0.205
GCATAAAC	0.0635
CACATCAC	0.244
AAGAGGAC	-0.357
CTAAGTAC	0.277
AGCTGATA	0.0938
AAAAAGAC	-0.0158
TCAGACGA	0.305
CACCTTTC	0.0415

3 entries from above, field by field.
AACATAGT
  PBM E-score = 0.0305
CACTAAGA
  PBM E-score = 0.115
CGGGCCAA
  PBM E-score = -0.205

Carrying on.

Sequence	PBM E-score
AGAGCAAT	-0.111
AAGAGCGG	-0.262
TCACCCGA	0.184
ATGGTCCC	-0.281
CGGTACTC	-0.104
ATATTTAA	0.278
GACATTGC	0.123
CAATGTCC	0.135
CCATATTC	-0.0785
ATCAGCCC	-0.0285
ACCTTCGG	-0.138
GCTATAAC	-0.109
AGGAAGGC	-0.15
ATGTAACA	-0.0231
AAAGGAAA	0.0937
CTCGGCGA	0.162
GTGTTTCA	-0.155
GGGCCACC	-0.258
GCCTGAAC	-0.268
CCCCACCC	-0.0997
CCCTACGC	-0.1
CTTCAGAA	-0.179
AGTTTTGA	-0.13
AAATCTAA	-0.0492
GGGATTGA	-0.0352

Sequence	PBM E-score
CGGGGGGC	-0.215
GGGCCCAA	-0.152
CACGTGTC	0.0235
ACTCCAAC	-0.109
GATCCTCC	-0.178
ACTCTAAT	0.0975
GCAGCAAA	-0.157
GTGCCAGA	-0.172
ATCGATGG	0.081
AAGGTTGC	-0.112
AGAGGCCT	-0.117
GGCTCGAC	-0.0785
GCCTCACC	-0.115
TATCTCGA	0.124
AGTGTAAA	-0.00367
CAGTATGC	-0.0593
CGCTTGGA	0.023
GGTATGCA	-0.094
CGGTATAC	-0.265
ACTCACCT	0.0445
GTTACCAA	0.0257
ACAGAGTC	-0.203
GTTGCTCA	0.0696
GAGTTTCC	-0.141
AGCGCCAA	-0.207

Sequence	PBM E-score
CGGGACAG	-0.0247
AAAGAGCA	0.0365
AACTCATA	-0.084
AGTTATAT	0.16
ACGCGCGA	0.133
CCGAGAGA	-0.116
CGGACAGC	0.0909
ACTCTAGG	-0.0987
GAACTATA	-0.0979
GTACGAAA	0.376
AACTGATG	0.051
CACGGATG	0.00583
CCATCACA	-0.206
AGGGCCTG	-0.222
GAACATTA	0.152
ATTGCCTG	0.0518
CGAGTCTA	-0.138
TCAAATCA	0.188
CAAGGGGA	0.0898
AAGCGCCC	-0.245
AAAGGGTA	-0.0845
CTGCCCGA	-0.151
AAAAACCT	-0.0101
AGTATTAG	0.0106
AGCAACCA	-0.0471

Sequence	PBM E-score
CGGTGACC	0.0798
AAATCGGC	-0.0768
ACCTGACT	-0.106
AAACGGAT	0.225
GCACTTAA	0.0282
GCCGAATA	0.151
CCGAGGCA	0.111
CACGCCTC	-0.181
CCGTCTAC	0.0928
CTTTCAAA	0.173
ATTGCTCG	-0.0852
CCTAGTAA	-0.122
AATGTACA	0.147
CATCATCC	0.259
ACGCAGTC	-0.224
GGCTACGA	0.0524
AGGACCCA	-0.256
CCATGCGC	-0.129
AATTGGAC	0.0413
CTCGACCA	-0.171
CAGAATCA	0.0602
GGTGCACC	0.0353
AACTATAG	-0.312
GTTCTTAA	0.124
CTTTCTGC	0.02

Quoted at random: six entries already listed
Sequence	PBM E-score
CTCGACCA	-0.171
GCACTTAA	0.0282
CCATGCGC	-0.129
AAATCGGC	-0.0768
CATCATCC	0.259
GGCTACGA	0.0524

The list goes on.

Sequence	PBM E-score
GCAGTCCC	-0.371
GGGGTGAA	-0.138
CTTAATCC	-0.156
CATCGGTA	-0.108
ATTGGTGG	-0.00223
ACGTACAT	0.244
CCGTGAAG	0.136
GTCATAGA	0.0245
CTCCAAAC	0.0343
CTAGTTCC	0.00136
TACTCCTA	-0.0957
GTGAACCA	0.00987
GGTGTGCA	0.0988
CACGTTTA	0.103
CTCACCTA	0.0628
AGTAGGAA	-0.13
CGGGGGAA	-0.334
AGGTCCCA	0.028
CCAGGTGC	-0.111
AGTAGGTC	0.0951
ACCTAGAC	0.00518
CAGGTCCG	-0.101
AGCTTAGG	-0.189
CCGGTCCA	-0.276
TCCGCGAA	0.179

Sequence	PBM E-score
GACAGTTA	0.0295
AGATCACG	0.35
AGAACTGC	0.024
AGCACAGG	-0.22
CGACTAAA	0.00382
TCACTAAA	0.279
ATCACGAA	0.256
AAATAAAG	0.134
CTTTATGA	-0.0129
GAGAGTCC	-0.161
ACCTCGAT	-0.0103
AAGACAGG	0.0183
AGTGTCCA	-0.0379
CGACGCCA	-0.159
AAAAGCGG	-0.179
AATTGTAG	0.0035
CCGCGAAG	-0.0585
ATGCGAAC	0.0355
GGTCTTTA	0.0661
CATTTACG	0.0051
AACCTGCT	-0.0529
CCGCGCTC	-0.0945
AATCGAGA	0.0395
ATCGTTAG	0.252
AGAATTAG	-0.163

Sequence	PBM E-score
GTTTGTCA	0.268
ATGCCTAC	-0.183
ATAATCTC	0.139
TGAAGCAA	-0.0631
CCTGACTA	0.156
GCCGTAGA	0.371
GGTAAGTA	-0.122
ATCCCGAC	0.0326
ATTGGTAG	-0.0865
AAAAGCAA	-0.1
AGGGGCAG	-0.246
ACAAGACA	-0.13
ACCGATAC	0.0193
GCTTCTTA	0.149
GAATCGCA	0.022
CGTAGCGC	-0.146
AATAGCAA	0.12
CGTAGTAG	0.0753
ATACGGAG	0.0972
ATTTCGAG	0.142
ATGCGTTA	0.074
CGTTTAAA	0.246
CCGATGGA	-0.0469
GAAGACAC	-0.0111
GACCTCGC	-0.0163

Sequence	PBM E-score
AATGCACG	0.115
CAGTTTAC	-0.054
AGTTTAGC	-0.174
AGCCACAA	-0.102
CAAAATCC	-0.0146
ATAACCAA	0.167
ATAATCCC	0.145
AAGTCACG	0.268
GGAATTCC	-0.0623
AGAGTTAA	0.0301
CGGTCGGC	-0.154
AACGAGGA	0.0834
GAACCCGC	-0.337
GCAACCGA	-0.132
GGATGTGA	-0.0763
AATAGTGG	0.0153
TCTAAGCA	-0.0647
AAAAATCT	0.0941
CGAAGTTC	0.0733
AACCCGTG	-0.0442
AACTTGCC	-0.059
CACCAATG	0.0285
AGAAAAGA	-0.0112
GAACTCGA	0.084
TCTACGCA	0.0333

A few values from above.
PBM E-score, CGAAGTTC is entered as 0.0733
PBM E-score, CAGTTTAC is entered as -0.054
PBM E-score, CACCAATG is entered as 0.0285
PBM E-score, AACGAGGA is entered as 0.0834
PBM E-score, AGAGTTAA is entered as 0.0301

(next part)

Sequence	PBM E-score
AGAGTCGG	-0.114
CAAACCTC	-0.247
CAGTTTAG	-0.143
CGGGATGA	0.0791
CTCAAAAC	-0.0687
CGTCCTGA	0.148
CCCTCGTC	0.0467
GTCTCAAA	0.161
GATTCACA	0.0261
AAAACCTG	-0.0914
ATAAGTGC	0.0214
GAATCTTA	0.164
CAAAACCA	-0.0072
ACAGCTTC	-0.197
GTCTTACA	-0.0527
GTAGGGAA	0.0879
GTGGCTGA	0.00582
ATTCCGGC	-0.208
CAAACACC	-0.0983
CAGCGTCC	-0.29
GATGAGTA	0.0707
CAATCTGC	-0.0922
GACTCAAA	-0.05
CTCTAAGA	0.0828
CTATTATC	0.277

Sequence	PBM E-score
CCACTTAG	-0.0828
CCTGCCCC	-0.308
AACGCTCA	-0.0246
GACGACCA	0.286
ACAACATA	0.0911
AATCAGCA	0.221
CTGATGGC	-0.118
GTATTCTA	0.088
ATTGTTAG	0.0638
AGGAAACA	0.0584
AATTCGCG	0.114
AGGATAAA	0.128
ACCAACGC	-0.145
CCTTCTGC	-0.195
TAGCTCGA	-0.17
AATTTGTA	0.086
ACCTGCGA	0.0631
TCAAAAGA	0.0565
GCAGAACC	-0.238
